Measurements reported in PubChem BioAssay AID504467 (National Center for Advancing Translational Sciences (NCATS), 2011).
Screen size: about 330,000 compounds; about 7,700 (2.3%) were called active. Inconclusive means that the source gave no clear call. Such entries were picked first, then a sample of the others. The call rests on the fitted dose curve; in most records, active means well fitted inhibition curve with a large enough effect; inconclusive means small, poorly fitted or top-dose-only effect, or effect the other way; inactive means flat fitted curve, though single readings scatter. Potencies of inconclusive entries are doubtful fits and often do not repeat.

test: qHTS screen for small molecules that inhibit ELG1-dependent DNA repair in human embryonic kidney (HEK293T) cells expressing luciferase-tagged ELG1; details: HEK293T ELG1-luciferase reporter, luminescence, 16 h, DNA damage induced by 5-fluorouridine; activity change, negative = inhibition: at 46.1 µM (top of the series); further: nearly all actives have a fitted effect of over 55% in size
Method in brief: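 Step one: seed 2,000 cells per well. Step two: pin-transfer compound or DMSO alongside 5-fluorouridine. Step three: incubate 16 hr, 37 °C, 5% CO2. Step four: add ONE-Glo, wait 30 min, read luminescence.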
On the % scale 0 is the no-effect control and ±100 the full control effect; potency means the concentration at half of the fitted maximal effect.

Structure (SMILES) | Potency | activity change, negative = inhibition
NC1=NN(c2cccc(C(=O)O)c2)C(=O)C1 | inconclusive: 23.1 µM [activator, single point] | –
Cc1c(Cl)ccc(S(=O)(=O)NCCCn2ccnc2)c1Cl | – | inactive: -16%
CCOC(=O)C1=NN(c2ccc(Cl)cc2)C(=O)C1 | inconclusive: 9.2 µM [activator, partial curve] | –
CCCCOc1ccc(C(=O)NCC(=O)NC2CCC(C)CC2)cc1 (stereo not given) | inconclusive: 0.0041 µM [activator, full curve, poor fit] | –
c1ccc(-c2nnc3n2N=C(c2ccc4c(c2)OCO4)CS3)nc1 | – | inactive: -7.94%
CC(C)=CCC/C(C)=C/CNC(=O)C[C@H]1C[C@H](C(=O)N2CCOCC2)[C@@]2(C)c3[nH]c4cc(CCC(=O)N(C)C)ccc4c3CCN2C1=O | inconclusive: 14.6 µM [inhibitor, partial curve, poor fit] | –
CCc1nc2oc3ccccc3c(=O)c2cc1C(=O)OC | inconclusive: 14.6 µM [activator, partial curve] | –
O=C(NNC(=O)c1ccncc1)NC1CCCCC1 | inconclusive: 10.3 µM [activator, partial curve, poor fit] | –
COc1ccc(-c2nn(CCC(=O)O)cc2/C=C2\SC(N)=NC2=O)cc1 | inconclusive: 20.6 µM [activator, partial curve, poor fit] | –
Nc1nnc(-c2ccccc2)s1 | inconclusive: 25.9 µM [activator, single point] | –
CCOC(=O)C1(CC2CCCCO2)CCN(S(=O)(=O)c2ccccc2)CC1 (stereo not given) | – | inactive: -1.6%
O=C(CC1SC(N2CCCC2)=NC1=O)Nc1ccc(C(=O)NCCOc2ccccc2F)cc1 (stereo not given) | inconclusive: 23.1 µM [activator, single point] | –
O=C(Nc1cccc(-c2nc3ccccc3s2)c1)c1ccc2c(c1)OCO2 | – | inactive: -11.5%
Cc1nc(N2CCN(c3ccccn3)CC2)c2c(C)c(C(=O)N3CCN(c4ccc(F)cc4)CC3)sc2n1 | active: 23.1 µM | –
COc1ccccc1-c1ccc(=O)n(CC(=O)NCc2cccs2)n1 | inconclusive: 23.1 µM [activator, single point] | –
O=c1c(O[C@@H]2O[C@H](CO)[C@@H](O)[C@H](O)[C@H]2O)c(-c2ccc(O)cc2)oc2cc(O)cc(O)c12 | inconclusive: 14.6 µM [activator, partial curve] | –
COc1ccc(-n2ccnc2SCC(=O)NC2CCCC2)c(OC)c1 | – | inactive: 3.76%
O=C(NCC(=O)N1CCN(c2ccccc2)CC1)c1ccc(Br)o1 | – | inactive: 2.02%
Cc1ccc(Cl)cc1NC(=O)COC(=O)c1ccccc1O | – | inactive: 15.4%
CCOC(=O)c1c(C)cc(C)n2c1nc1ccccc12 | – | inactive: -23.9%
O=C(NC1CCCCCCC1)c1cccc(Cl)c1 | inconclusive: 3.26 µM [activator, single point] | –
O=C(c1cc2cc(F)ccc2[nH]1)N1CCc2ccccc2C1 | inconclusive: 23.1 µM [activator, single point] | –
CCOc1cccc2sc(N(CCCN(C)C)C(=O)c3ccc(S(=O)(=O)N4CCc5ccccc5C4)cc3)nc12 | inconclusive: 23.1 µM [activator, partial curve] | –
O=C(N/N=C/c1cccc([N+](=O)[O-])c1)c1cccs1 | inconclusive: 10.3 µM [activator, partial curve] | –

Some of the entries above in a different format.
Structure (SMILES)	Potency	activity change, negative = inhibition
CCc1nc2oc3ccccc3c(=O)c2cc1C(=O)OC	inconclusive: 14.6 µM [activator, partial curve]	–
O=C(NNC(=O)c1ccncc1)NC1CCCCC1	inconclusive: 10.3 µM [activator, partial curve, poor fit]	–
COc1ccc(-c2nn(CCC(=O)O)cc2/C=C2\SC(N)=NC2=O)cc1	inconclusive: 20.6 µM [activator, partial curve, poor fit]	–
Nc1nnc(-c2ccccc2)s1	inconclusive: 25.9 µM [activator, single point]	–
CCOC(=O)C1(CC2CCCCO2)CCN(S(=O)(=O)c2ccccc2)CC1 (stereo not given)	–	inactive: -1.6%
O=C(CC1SC(N2CCCC2)=NC1=O)Nc1ccc(C(=O)NCCOc2ccccc2F)cc1 (stereo not given)	inconclusive: 23.1 µM [activator, single point]	–
O=C(Nc1cccc(-c2nc3ccccc3s2)c1)c1ccc2c(c1)OCO2	–	inactive: -11.5%
Cc1nc(N2CCN(c3ccccn3)CC2)c2c(C)c(C(=O)N3CCN(c4ccc(F)cc4)CC3)sc2n1	active: 23.1 µM	–
COc1ccccc1-c1ccc(=O)n(CC(=O)NCc2cccs2)n1	inconclusive: 23.1 µM [activator, single point]	–
O=c1c(O[C@@H]2O[C@H](CO)[C@@H](O)[C@H](O)[C@H]2O)c(-c2ccc(O)cc2)oc2cc(O)cc(O)c12	inconclusive: 14.6 µM [activator, partial curve]	–
COc1ccc(-n2ccnc2SCC(=O)NC2CCCC2)c(OC)c1	–	inactive: 3.76%
O=C(NCC(=O)N1CCN(c2ccccc2)CC1)c1ccc(Br)o1	–	inactive: 2.02%
Cc1ccc(Cl)cc1NC(=O)COC(=O)c1ccccc1O	–	inactive: 15.4%
CCOC(=O)c1c(C)cc(C)n2c1nc1ccccc12	–	inactive: -23.9%
O=C(NC1CCCCCCC1)c1cccc(Cl)c1	inconclusive: 3.26 µM [activator, single point]	–
O=C(c1cc2cc(F)ccc2[nH]1)N1CCc2ccccc2C1	inconclusive: 23.1 µM [activator, single point]	–
CCOc1cccc2sc(N(CCCN(C)C)C(=O)c3ccc(S(=O)(=O)N4CCc5ccccc5C4)cc3)nc12	inconclusive: 23.1 µM [activator, partial curve]	–
O=C(N/N=C/c1cccc([N+](=O)[O-])c1)c1cccs1	inconclusive: 10.3 µM [activator, partial curve]	–

Next part:

Structure (SMILES) | Potency | activity change, negative = inhibition
c1ccc(CC2CCN(c3nc4ccccc4n4nnnc34)CC2)cc1 | – | inactive: -2.23%
Cc1ccc(-c2nc3ccc(NS(=O)(=O)c4ccccc4)cc3[nH]2)o1 | inconclusive: 7.31 µM [activator, partial curve] | –
O=C(Nc1ccncc1)C1(c2ccccc2)CCCC1 | inconclusive: 35.5 µM [inhibitor, single point] | –
O=C(NCC1CCCN1S(=O)(=O)c1cccs1)c1ccc([N+](=O)[O-])cc1 (stereo not given) | inconclusive: 25.9 µM [inhibitor, single point] | –
O=C(Cc1ccccc1)Nc1ccc(NC(=O)c2ccc(Br)cc2)cc1 | – | inactive: -11.6%
COC(=O)c1cccc(S(=O)(=O)N(Cc2ccco2)Cc2cc3ccc(OC)cc3[nH]c2=O)c1 | inconclusive: 11.6 µM [inhibitor, partial curve, poor fit] | –
COc1ccc(NC2=C(C)C(=O)CC2)cc1 | inconclusive: 13 µM [activator, partial curve] | –
COc1cccc(NC(=O)CN(C)C(=O)CCCc2nc3ccccc3s2)c1 | inconclusive: 23.1 µM [inhibitor, single point] | –
CC(C)OCCCNC(=O)c1cccs1 | – | inactive: 2.2%
COc1ccc(C(=O)/C(=C/c2cccs2)c2nc3ccccc3o2)cc1 | inconclusive: 8.2 µM [activator, partial curve] | –
CCOC(=O)c1c(C)oc2c1c(C=NCCO)c(O)c1ccccc12 | inconclusive: 16.4 µM [inhibitor, partial curve] | –
CCOC(=O)c1cn2nc(Oc3ccc(OC)cc3)ccc2n1 | – | inactive: 9.89%
COc1ccc2[nH]c3c(c2c1)CCN1C(=O)C(CC(=O)NCC24CC5CC(CC(C5)C2)C4)C[C@H](C(=O)N2CCOCC2)[C@@]31CCC1CCCC1 (stereo not given in full) | – | inactive: -15.5%
CC1(C)Cc2c(sc3c2c(N)nc(=S)n3Cc2ccccc2)CO1 | – | inactive: 1.95%
COc1ccc(C(CNC(=O)c2cc(S(=O)(=O)N3CCN(c4ccccc4)CC3)ccc2Cl)N(C)C)cc1 (stereo not given) | inconclusive: 25.9 µM [inhibitor, single point] | –
COc1ccc(/C=N/NC2=NS(=O)(=O)c3ccccc32)cc1OC(C)=O | inconclusive: 29.1 µM [activator, single point] | –
Cc1ccc(S(=O)(=O)NNC(=O)c2cccc(O)c2)cc1 | – | inactive: 4.15%
OCC1(C2=NOC(O)(C(F)(F)F)C2)CCCCC1 (stereo not given) | inconclusive: 6.51 µM [inhibitor, single point] | –
Cc1c(C(=O)OCCOc2ccccc2)[nH]c2c1C(=O)CCC2 | inconclusive: 0.651 µM [activator, partial curve] | –
COc1ccc(C(=O)Nc2sc(C)c(C)c2CN2CCOCC2)cc1 | inconclusive: 4.61 µM [activator, full curve] | –
Cc1ccc(S(=O)(=O)N2CCCN(S(=O)(=O)c3ccc4ccccc4c3)CC2)cc1 | inconclusive: 29.1 µM [inhibitor, single point] | –
CN(/N=C\c1ccc(O)c(O)c1)c1nc(-c2ccccc2)cc(-c2ccccc2)n1 | active: 13 µM | –
Cc1nn(Cc2ccccc2Cl)c(C)c1NC(=O)C1C2CCC(O2)C1C(=O)O (stereo not given) | – | inactive: 31.5%
Cc1ccc(NC(=O)CCNS(=O)(=O)c2ccc3c(c2)CCC(=O)N3)c(Br)c1 | – | inactive: -18.3%

Structure (SMILES) | Potency | activity change, negative = inhibition
CCc1cccc2c(C(=O)COC(=O)/C=C/c3ccc(O)c(OC)c3)c[nH]c12 | active: 20.6 µM | –
O=C(NC(=S)Nc1ccccn1)c1ccc(-c2ccccc2)cc1 | inconclusive: 0.517 µM [activator, partial curve] | –
S=c1[nH]nc(Cc2noc3ccccc23)n1-c1ccccc1 | inconclusive: 6.51 µM [activator, partial curve, poor fit] | –
CCOc1ccc(NC(=O)CCCN2C(=O)C(c3ccccc3)Oc3cccnc32)cc1 (stereo not given) | – | inactive: -8.83%
COCCNC(=O)c1nc2ccccc2s1 | inconclusive: 23.1 µM [activator, single point] | –
C[C@@H](C(=O)NCCc1ccccc1)N1C(=O)N2CCc3c([nH]c4ccccc34)[C@@]2(C)C1=O | – | inactive: 4.2%
COc1ccc(-n2cc(CNCCCn3ccnc3)c(-c3ccccc3Cl)n2)cc1 | inconclusive: 29.1 µM [inhibitor, single point] | –
Cc1ccc(NC(=S)NNC(=O)c2c([N+](=O)[O-])c(C)nn2C)cc1 | – | inactive: -5.58%
Cc1ccc(C(=O)N/C(=C\c2ccc(-c3ccc([N+](=O)[O-])cc3)o2)C(=O)NC2CCS(=O)(=O)C2)cc1 (stereo not given) | inconclusive: 25.9 µM [inhibitor, partial curve] | –
CCn1nc(C(=O)OCC(=O)Nc2nc(-c3ccc(OC)cc3)cs2)c2ccccc2c1=O | inconclusive: 11.6 µM [activator, partial curve] | –
O=C(Nc1cccc(S(=O)(=O)N2CCCC2)c1)c1ccc2c(=O)n3c(nc2c1)CCCCC3 | active: 5.8 µM | –
C=CCn1cc(C(=O)OC)c(=O)c2cc(S(=O)(=O)N3CCC(C)CC3)ccc21 | – | inactive: -11.3%
Cc1ccccc1NC(=O)C1C2CCC(O2)C1C(=O)O (stereo not given) | inconclusive: 20.6 µM [activator, single point] | –
CCCCOc1cccc(/C=N/NC(=O)c2csc(C)c2C)c1 | – | inactive: -13.2%
CSc1ncccc1C(=O)Nc1ncc(C)s1 | inconclusive: 16.4 µM [activator, partial curve, poor fit] | –
Cn1c(NCc2cccc(Br)c2)nc2ccccc21 | inconclusive: 20.6 µM [activator, single point] | –
CC(=O)Nc1ccccc1C | inconclusive: 9.2 µM [activator, partial curve, poor fit] | –
CCOC(=O)c1c(C)[nH]c(C)c1C(=O)COC(=O)c1cc2ccccc2cc1O | inconclusive: 32.6 µM [inhibitor, partial curve, poor fit] | –
Cc1ccc(-c2ccc(S(=O)(=O)N3CCN(C)CC3)cc2)cc1 | inconclusive: 6.51 µM [inhibitor, single point] | –
O=C(/C=C/c1ccco1)N1CCC(Cc2ccccc2)CC1 | inconclusive: 20.6 µM [activator, partial curve] | –
CCOc1ccc(N2C(=O)/C(=C/c3ccc(C)o3)N(C)C2=S)cc1 | inconclusive: 20.6 µM [activator, single point] | –
CSc1ccccc1NC(=O)CN1CCN(S(=O)(=O)c2ccccc2[N+](=O)[O-])CC1 | inconclusive: 35.5 µM [inhibitor, single point] | –
